PubChem BioAssay AID1053208 – Peter MacCallum Cancer Centre, 2014

Screen: 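Synthetic lethal interactions between gene loss and doxorubicin in osteosarcoma cells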 (primary screen)
Cells: mouse osteosarcoma cells, early-passage culture from an engineered mouse model of fibroblastic bone tumour
Knock-down reagent: siRNA pool against mouse genes, 40 nM
Timing: about 120 h (48 h before drug, then 72 h with drug)
Challenge: doxorubicin 100 nM for 72 h, roughly 30-40% inhibitory dose
Measurement: 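Luminescent ATP signal taken as viability with or without 100 nM doxorubicin for 72 h; mean of two wells set against non-targeting siRNA and turned into robust z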
Direction: viability z-score with doxorubicin: higher = more viable cells under doxorubicin; viability z-score without drug: higher = more viable cells with knock-down alone
Call rule: 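Called active if knock-down leaves viability unchanged without drug (z within -2 to 2) but lowers it with doxorubicin (z at or under -2)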
In all, the deposit lists about 17,000 reagents; shown is a part drawn at random. In the full data, 788 (4.7%) got an active call. 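Calls rest on z-score classes alone; an extra cut-off of viability at most 70% of control was not applied to them.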 Entries without a mark were called inactive. Reagents against one gene are numbered here. Not all columns of the deposit are shown.

Ssmem1 (serine-rich single-pass membrane protein 1)
- combined z-score class: no change with or without drug
- viability z-score with doxorubicin: -0.67
- viability z-score without drug: 0.17

Alpi (alkaline phosphatase, intestinal)
- combined z-score class: no change with or without drug
- viability z-score with doxorubicin: -1.8
- viability z-score without drug: 1.18

Mmp28 (matrix metallopeptidase 28 (epilysin))
- combined z-score class: no change with or without drug
- viability z-score with doxorubicin: 0.22
- viability z-score without drug: 0.84

Fcrl1 (Fc receptor-like 1)
- combined z-score class: no change with or without drug
- viability z-score with doxorubicin: -1.46
- viability z-score without drug: -1.18

Dcc (DCC netrin 1 receptor)
- combined z-score class: no change with or without drug
- viability z-score with doxorubicin: 1.57
- viability z-score without drug: 1.18

Prm3 (protamine 3)
- combined z-score class: no change with or without drug
- viability z-score with doxorubicin: 0.34
- viability z-score without drug: 0

Hmg20a (high mobility group 20A)
- combined z-score class: no change with or without drug
- viability z-score with doxorubicin: 0.79
- viability z-score without drug: -0.67

Gde1 (glycerophosphodiester phosphodiesterase 1)
- combined z-score class: no change with or without drug
- viability z-score with doxorubicin: 0.9
- viability z-score without drug: 0.84

Ccdc92 (coiled-coil domain containing 92)
- combined z-score class: no change with or without drug
- viability z-score with doxorubicin: 0.67
- viability z-score without drug: 0

Dnpep (aspartyl aminopeptidase)
- combined z-score class: no change with or without drug
- viability z-score with doxorubicin: 0.9
- viability z-score without drug: 0.84

Homer2 (homer scaffolding protein 2)
- combined z-score class: no change with or without drug
- viability z-score with doxorubicin: -0.56
- viability z-score without drug: -0.51

Lmbr1l (limb region 1 like)
- combined z-score class: no change with or without drug
- viability z-score with doxorubicin: 0
- viability z-score without drug: 0.34

Aqp6 (aquaporin 6)
- combined z-score class: no change with or without drug
- viability z-score with doxorubicin: 0.22
- viability z-score without drug: -0.84

Or5w22 (olfactory receptor family 5 subfamily W member 22)
- combined z-score class: low cell count without drug only
- viability z-score with doxorubicin: -1.01
- viability z-score without drug: -2.19

Asah2 (N-acylsphingosine amidohydrolase 2)
- combined z-score class: no change with or without drug
- viability z-score with doxorubicin: -0.11
- viability z-score without drug: 0.17

Stx7 (syntaxin 7)
- combined z-score class: no change with or without drug
- viability z-score with doxorubicin: 1.24
- viability z-score without drug: 0.51

Mmd (monocyte to macrophage differentiation-associated)
- combined z-score class: no change with or without drug
- viability z-score with doxorubicin: -0.22
- viability z-score without drug: -1.85

Hsd3b7
- combined z-score class: no change with or without drug
- viability z-score with doxorubicin: 1.24
- viability z-score without drug: 0.17

Look-ups from the entries so far.
Value of Gde1 (glycerophosphodiester phosphodiesterase 1) under “viability z-score without drug”: 0.84
Value for Mmd (monocyte to macrophage differentiation-associated) in “viability z-score with doxorubicin”: -0.22
Under “viability z-score with doxorubicin”, Aqp6 (aquaporin 6) reads 0.22

Further entries follow:
Stx1b (syntaxin 1B) #1
- combined z-score class: no change with or without drug
- viability z-score with doxorubicin: -0.45
- viability z-score without drug: 0.17

Stx1b (syntaxin 1B) #2
- combined z-score class: no change with or without drug
- viability z-score with doxorubicin: 0.34
- viability z-score without drug: 0.51

Npffr2 (neuropeptide FF receptor 2)
- combined z-score class: no change with or without drug
- viability z-score with doxorubicin: 0.11
- viability z-score without drug: 0.67

Slc9b2
- combined z-score class: low cell count with doxorubicin only (active)
- viability z-score with doxorubicin: -2.02
- viability z-score without drug: -0.17

Crlf2 (cytokine receptor-like factor 2)
- combined z-score class: no change with or without drug
- viability z-score with doxorubicin: 0
- viability z-score without drug: 0.67

Pold3 (polymerase (DNA-directed), delta 3, accessory subunit)
- combined z-score class: low cell count with and without drug
- viability z-score with doxorubicin: -3.04
- viability z-score without drug: -2.02

Dglucy (D-glutamate cyclase)
- combined z-score class: no change with or without drug
- viability z-score with doxorubicin: 0
- viability z-score without drug: -0.84

Tjp3 (tight junction protein 3)
- combined z-score class: no change with or without drug
- viability z-score with doxorubicin: 0
- viability z-score without drug: 0.51

Taf4 (TATA-box binding protein associated factor 4)
- combined z-score class: no change with or without drug
- viability z-score with doxorubicin: -1.12
- viability z-score without drug: -1.35

Pcnx2 (pecanex homolog 2) #1
- combined z-score class: no change with or without drug
- viability z-score with doxorubicin: 0.34
- viability z-score without drug: -0.17

Pcnx2 (pecanex homolog 2) #2
- combined z-score class: no change with or without drug
- viability z-score with doxorubicin: 0.79
- viability z-score without drug: 0.51
